Assay results: doi:10.1101/2022.11.10.516034 (bioRxiv, 2022)
These are yes or no findings as the source states them, for the method shown.

Target: Twinkle N-terminal domain (NTD, amino acids 43-372) (human) (UniProt Q96RR1)
Test: SEC

binding: no binding (tested: ~80 µM)
B1: Twinkle N-terminal domain (NTD, amino acids 43-372) (domain or fragment, UniProt Q96RR1 43-372)
chain: ETLQALDMPVLPVTATEIRQYLRGHGIPFQDGHSCLRALSPFAESSQLKGQTGVTTSFSLFIDKTTGHFLCMTSLAEGSWEDFQASVEGRGDGAREGFLLSKAPEFEDSEEVRRIWNRAIPLWELPDQEEVQLADTMFGLTKVTDDTLKRFSVRYLRPARSLVFPWFSPGGSGLRGLKLLEAKCQGDGVSYEETTIPRPSAYHNLFGLPLISRRDAEVVLTSRELDSLALNQSTGLPTLTLPRGTTCLPPALLPYLEQFRRIVFWLGDDLRSWEAAKLFARKLNPKRCFLVRPGDQQPRPLEALNGGFNLSRILRTALPAWHKSIVSFRQ
